From publication PMC12040169 (PLOS Biology, 2025)
The list shows a part of the results.

What follows are compounds tested on T1, CTL2-GFP (C. trachomatis L2/434/Bu, GFP-expressing). Details: bulk GFP, single well; 28.5 h, 10 µM; inhibitor.
T1 construct: L2/434/Bu, GFP-expressing
Design: species or system HeLa; Intracellular C. trachomatis growth in HeLa cells, bulk GFP fluorescence relative to DMSO
With `CC(=O)c1cccc(NC(=O)Nc2ccc(S(=O)(=O)Nc3cc(C)on3)cc2)c1` [CBK299794] the “% of control remaining” value was 38.4293%. `CN1C[C@@H](NS(C)(=O)=O)C[C@H]1c1nc(-c2ccc3c(c2)OCO3)no1` [CBK288875] was tested, and the “% of control remaining” value was 116.238%. With `O=S(=O)(Nc1cccnc1N1CCOCC1)c1ccc(F)cc1` [CBK051009] the “% of control remaining” value was 75.5261%. For `CCn1ncc(CN2CCCCCC2c2cc(C)on2)c1C` (centres unmarked) [CBK282141], the “% of control remaining” value was 142.739%. In the case of `CCc1noc(C)c1C(=O)N1CC(C(=O)N2CCN(c3ccccc3)CC2)C1` [CBK285667], the “% of control remaining” value is reported as 124.678%. `O=c1[nH]c(=O)c2cc(S(=O)(=O)NC3CCN(Cc4ccccc4)C3)ccc2[nH]1` (centres unmarked) [CBK286380] was tested, and the “% of control remaining” value was 109.06%. With `CCc1nc2c(OCCCN(C)S(C)(=O)=O)cccn2c1N(C)C(=O)c1ccco1` [CBK147435] the “% of control remaining” value was 119.231%. With `CC(CN1CCN(Cc2ccccc2)CC1)N(C(=O)c1ccoc1)c1ccccn1` (centres unmarked) [CBK074861C] the “% of control remaining” value was 114.506%. `CCn1c(SCc2cc(C)no2)nnc1C1CC1` [CBK297758] was tested, and the “% of control remaining” value was 142.838%. In the case of `O=S(=O)(NCc1ccccc1)c1cccc(S(=O)(=O)NCc2ccccc2)c1` [CBK263250], the “% of control remaining” value is reported as 121.273%. In the case of `CCN(Cc1ccccc1)C(=O)NCCc1c[nH]c2ccc(OC)cc12` [CBK155226], the “% of control remaining” value is reported as 100.997%. In the case of `COc1ccc(OCC(O)CN2CCN(c3ccccn3)CC2)cc1` (centres unmarked) [CBK278239C], the “% of control remaining” value is reported as 100%. With `CC(=O)Nc1ccc(-c2cncc(Nc3ccc(F)c(Cl)c3)n2)cc1` [CBK065765] the “% of control remaining” value was 213.64%. In the case of `CCS(=O)(=O)NC1CC(C)(C)Cc2c1cnn2-c1ccc(OC)cc1` (centres unmarked) [CBK306656], the “% of control remaining” value is reported as 108.673%. With `c1csc(CNc2nccnc2-c2cccs2)c1` [CBK036602] the “% of control remaining” value was 92.7079%. In the case of `O=C(Cc1noc2ccccc12)Nc1ccc(N2CCCS2(=O)=O)cc1` [CBK304521], the “% of control remaining” value is reported as 97.9146%. In the case of `O=[N+]([O-])c1ccc(CN2CCN(Cc3ccc4c(c3)OCO4)CC2)o1` [CBK074557], the “% of control remaining” value is reported as 105.902%. With `O=C(c1cccc2[nH]ccc12)N1CCCC2(CCN(Cc3ccccc3)C2)C1` (centres unmarked) [CBK136887] the “% of control remaining” value was 157.125%. `CN(CC(=O)Nc1ccc(Cl)c(C(F)(F)F)c1)C(=O)c1cc(O)nc2ccccc12` [CBK295304] was tested, and the “% of control remaining” value was 85.6407%. For `Cc1cc(C(=O)COc2cccc(-n3cnnn3)c2)c(C)n1C(C)c1ccccc1` (centres unmarked) [CBK295643], the “% of control remaining” value was 101.658%. For `O=C(Cc1ccc(Cl)cc1Cl)Nc1ccc(-c2nnc3n2CCCCC3)cc1` [CBK296949], the “% of control remaining” value was 151.476%. With `COc1ccc(-n2ncc3c2CCCN(C(=O)C2CC2)C3)cc1` [CBK284498] the “% of control remaining” value was 126.848%. For `CCCN(CCC)C(=O)c1nc(C)c(C(=O)N(CCC)CCC)nc1C` [CBK023232], the “% of control remaining” value was 158.452%. `CCOC(=O)C1CCN(Cn2nc(O)ccc2=O)CC1` [CBK263331] was tested, and the “% of control remaining” value was 117.662%. With `O=C(c1ccoc1)N1CCC2(CCCN(Cc3cc(=O)[nH]c(=O)[nH]3)C2)C1` (centres unmarked) [CBK132823] the “% of control remaining” value was 148.246%. For `COc1ccc(OC(=O)C2CCN(C(=O)CC(C)C)CC2)c([N+](=O)[O-])c1` [CBK154770], the “% of control remaining” value was 106.217%. `CNC(=O)c1cccc(NC(=O)c2cc(-c3cccnc3)cnc2NCc2ccc3c(c2)OCO3)c1` [CBK076291] was tested, and the “% of control remaining” value was 101.529%. `COC(=O)c1cc(OC)c(OC)cc1NC(=S)N1CCC(C(N)=O)CC1` [CBK268507] was tested, and the “% of control remaining” value was 140.047%. `O=C(c1ccc2[nH]c(=O)[nH]c2c1)N1CCC2(CCNC2)C1` (centres unmarked) [CBK156747C] was tested, and the “% of control remaining” value was 116.321%. In the case of `CS(=O)(=O)c1ccc(CN2CCOC3(CCN(C(=O)c4ccc5ccccc5c4)CC3)C2)cc1` [CBK161122A], the “% of control remaining” value is reported as 82.6077%. For `CC1Cc2cc(-c3cc4ccccn4c3)ccc2N1S(C)(=O)=O` (centres unmarked) [CBK285227], the “% of control remaining” value was 127.438%. In the case of `COc1cccc(C(=O)NCCC(=O)N2CCCC(c3ncc[nH]3)C2)c1` (centres unmarked) [CBK306864], the “% of control remaining” value is reported as 120.354%. For `CCOC(=O)c1[nH]c2ccccc2c1NS(=O)(=O)c1ccc(C)c([N+](=O)[O-])c1` [CBK047427], the “% of control remaining” value was 121.402%. With `CCOCCn1c(CN2CCCCC2)nc2c1c(=O)n(C)c(=O)n2C` [CBK306028] the “% of control remaining” value was 153.507%. `CC(=O)NCC1OCCc2ccccc21` (centres unmarked) [CBK026449] was tested, and the “% of control remaining” value was 114.989%. In the case of `CC(C)(c1noc(C2CCOCC2)n1)S(=O)(=O)c1ccc(Br)cc1` [CBK305543], the “% of control remaining” value is reported as 103.506%. In the case of `Cc1c(CNC(=O)c2cc(-c3ccncc3)nc3ccc(Cl)cc23)cnn1C` [CBK288627], the “% of control remaining” value is reported as 111.292%. With `N#CCCn1cc(C(=O)N2CCOCC2)c(-c2ccccc2)n1` [CBK306207] the “% of control remaining” value was 140.022%. `CNS(=O)(=O)c1cccc(C(C)NC(=O)N2CCC2)c1` (centres unmarked) [CBK306257] was tested, and the “% of control remaining” value was 167.944%. `Oc1ccc(Br)cc1/C=N/c1ccc(-c2cc(-c3ccc(/N=C/c4cc(Br)ccc4O)cc3)ncn2)cc1` [CBK261630] was tested, and the “% of control remaining” value was 109.173%. With `Fc1ccc(-n2cc(-c3cccnc3)nn2)cc1F` [CBK113055] the “% of control remaining” value was 129.905%. `Cn1nc(-c2ccc(Cl)cc2)cc1NC(=O)Cn1nnc(-c2ccc(F)cc2)n1` [CBK295203] was tested, and the “% of control remaining” value was 144.228%. In the case of `COc1ccc(CNC(=O)NC(=O)C2CCN(CCCc3ccc4c(c3)OCO4)CC2)c(OC)c1` [CBK034875], the “% of control remaining” value is reported as 102.349%. With `Cn1nccc1CNCc1c(Br)cc(F)c(F)c1N1CCCCC1` [CBK306284] the “% of control remaining” value was 112.21%. In the case of `Nc1ncc(-c2ccncc2)nc1NCC1CCOCC1` [CBK063816], the “% of control remaining” value is reported as 170.139%. With `Cc1ccc(S(=O)(=O)N2CCN(CC(O)COc3ccc4ccccc4c3Cl)CC2)c(C)c1` (centres unmarked) [CBK266563] the “% of control remaining” value was 126.944%. With `Cc1nc(C)c(C(=O)NC2Cc3ccccc3C2)s1` [CBK200357] the “% of control remaining” value was 104.086%. `Cc1nn(-c2nc3ccccc3s2)c(O)c1C` [CBK270254] was tested, and the “% of control remaining” value was 135.22%. With `CN(Cc1cn(-c2ccccc2)nc1-c1ccccc1)C(=O)CCc1n[nH]c(=S)[nH]c1=O` [CBK295630] the “% of control remaining” value was 142.548%. `COCCNc1nccnc1-c1ccccc1CO` [CBK038010] was tested, and the “% of control remaining” value was 101.636%. With `Cc1nc(C(Cc2ccsc2)NC(=O)C(C)(C)N)sc1C` (centres unmarked) [CBK284775] the “% of control remaining” value was 156.353%. For `OC1CCN(c2ccc(-c3ccccc3)nn2)CC1` [CBK021753], the “% of control remaining” value was 112.516%. `COc1ccc(CC(=O)O)cc1S(=O)(=O)Nc1ccc(SC)cc1` [CBK298315] was tested, and the “% of control remaining” value was 117.424%. In the case of `CC(=O)N1CCCC[C@H]2[C@H]1C[C@@H](c1ccccc1)N2C(=O)CN1CCCCCC1` [CBK286120], the “% of control remaining” value is reported as 92.0803%. With `FC(F)(F)c1nc2ccccc2nc1OC1CCOC1` (centres unmarked) [CBK115806] the “% of control remaining” value was 97.6751%. In the case of `CCOc1cc(OCC)cc(C(=O)N2CCCC3(CC(=O)c4ccc(C)cc4O3)C2)c1` (centres unmarked) [CBK168067], the “% of control remaining” value is reported as 103.214%. With `Cc1c(C(N)=O)sc(NC(=O)c2cccnc2)c1C#N` [CBK268163] the “% of control remaining” value was 103.009%. `O=C(c1cnc2ccccc2n1)N1CCc2ccccc21` [CBK200267] was tested, and the “% of control remaining” value was 122.808%. For `COc1cc(-c2cncc(NCCCO)n2)cc(OC)c1OC` [CBK065271], the “% of control remaining” value was 171.872%. With `O=C(Nc1cc(N2CCNCC2)c2occc2c1)c1cccc(C(F)(F)F)c1` [CBK061762C] the “% of control remaining” value was 73.769%. `CN1C(=O)c2cccc3c(S(=O)(=O)N4CCN(S(=O)(=O)c5ccc6c7c(cccc57)C(=O)N6C)CC4)ccc1c23` [CBK269140] was tested, and the “% of control remaining” value was 152.545%. In the case of `O=C(NC(c1ccccc1)c1ccco1)C1CCN(C(=O)c2cccs2)CC1` (centres unmarked) [CBK059854], the “% of control remaining” value is reported as 110.022%. `Cc1cccc(C(=O)Nc2ccccc2C(=O)Nc2cccc(C(=O)O)c2C)c1` [CBK265911] was tested, and the “% of control remaining” value was 113.868%. With `Cc1ccccc1OCC(=O)Nc1c(C)n[nH]c1C` [CBK266046C] the “% of control remaining” value was 119.918%. For `CN(CC(=O)NCc1ccccn1)S(=O)(=O)c1ccc(Br)cc1` [CBK265127], the “% of control remaining” value was 132.028%. With `CCOC(=O)C1(Cc2ccc(F)cc2F)CCCN(S(=O)(=O)CC)C1` (centres unmarked) [CBK307655] the “% of control remaining” value was 124.648%. `NCc1ccc(-c2nc3ccccc3[nH]2)nc1` [CBK024396C] was tested, and the “% of control remaining” value was 93.8528%. In the case of `N#Cc1ccc(CSc2ncccc2C(=O)O)cc1` [CBK287187], the “% of control remaining” value is reported as 135.62%. `Cc1cc(C)c2nc(-c3ccccn3)cc(C(=O)NCc3cccs3)c2c1` [CBK267772] was tested, and the “% of control remaining” value was 129.786%. With `Cn1c(Sc2ccc(C(=O)O)cc2[N+](=O)[O-])nnc1-c1ccccc1` [CBK265047] the “% of control remaining” value was 124.1%. `O=c1[nH]c(=O)c2cc(S(=O)(=O)Nc3ccc(Oc4cccnc4)cc3)ccc2[nH]1` [CBK286386] was tested, and the “% of control remaining” value was 131.33%. `O=S(=O)(NCC(Nc1cccc2ccccc12)c1ccccc1)c1ccc(Cl)cc1` (centres unmarked) [CBK264087] was tested, and the “% of control remaining” value was 68.0384%. For `O=C(CN(Cc1ccccc1)S(=O)(=O)c1cc(Cl)ccc1Cl)Nc1cccc(F)c1` [CBK264664], the “% of control remaining” value was 134.724%. `CC(=O)c1ccc(C(=O)Nc2nc3c(s2)COc2ccccc2-3)cc1` [CBK287363] was tested, and the “% of control remaining” value was 134.676%. For `NC(=O)CO[C@@H]1CO[C@H]2[C@@H]1OC[C@@H]2NCc1ccccc1` [CBK289479], the “% of control remaining” value was 95.2245%. For `O=c1[nH]nc2c3ccc(Cl)cc3ncn12` [CBK283988], the “% of control remaining” value was 110.571%. `CNC(=O)c1nn(CCCc2ccc(OC)cc2)c2ccccc12` [CBK105842] was tested, and the “% of control remaining” value was 67.4073%.
